The data set deals with native PSMA on LNCaP cells (Homo sapiens) (UniProt Q04609). Description: binding assay. As to conditions: 2'-F pyrimidines, 5'-hexylamine, 3' deoxy-T cap, PBS without Mg/Ca, room temp, protein on the cell surface, label: Rhodamine-Red-X.

Sequences of proteins named here, by UniProt entry; tags and fusion partners are left off. A change or cut given only in a name is not applied to a line headed by its entry.
UniProt Q04609: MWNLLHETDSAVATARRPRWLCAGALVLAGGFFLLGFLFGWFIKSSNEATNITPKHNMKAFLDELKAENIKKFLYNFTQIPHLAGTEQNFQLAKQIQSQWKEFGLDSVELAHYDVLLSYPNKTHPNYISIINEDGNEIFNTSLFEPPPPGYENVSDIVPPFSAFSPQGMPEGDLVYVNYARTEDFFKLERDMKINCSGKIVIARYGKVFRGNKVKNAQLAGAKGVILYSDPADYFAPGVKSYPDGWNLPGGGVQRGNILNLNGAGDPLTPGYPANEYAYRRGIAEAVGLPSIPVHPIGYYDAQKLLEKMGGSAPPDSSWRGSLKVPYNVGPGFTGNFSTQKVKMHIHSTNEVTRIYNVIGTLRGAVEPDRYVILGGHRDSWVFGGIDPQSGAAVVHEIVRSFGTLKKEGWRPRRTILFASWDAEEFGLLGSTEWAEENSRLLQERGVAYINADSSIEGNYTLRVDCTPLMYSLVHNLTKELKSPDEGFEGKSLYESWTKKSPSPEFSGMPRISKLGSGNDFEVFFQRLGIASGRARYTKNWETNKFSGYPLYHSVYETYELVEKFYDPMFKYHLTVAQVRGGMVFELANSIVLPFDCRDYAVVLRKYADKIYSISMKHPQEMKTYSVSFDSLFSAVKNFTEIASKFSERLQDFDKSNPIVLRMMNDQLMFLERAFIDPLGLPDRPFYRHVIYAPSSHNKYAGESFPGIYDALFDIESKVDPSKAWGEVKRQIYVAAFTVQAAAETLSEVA

At least one result comes from cells or an extract, where the contact may be indirect. No signal at the amounts used counts as a negative.

As to “CAGGCAUGCCUAGCUAAGCAGCCCAUGGCUUAUGCGCGGAAUAUUGGCUUCCGUUC [A10-3-scrambled (A10-3-rndm)]”, for the setting “scrambled control, 50 nM, variant of A10-3 rhodamine”, the binding result was “no binding”.

Turning to “GGGAGGACGAUGCGGAUCAGCCAUGUUUACGUCACUCCUUGUCAAUCCUCAUCGGC [A10-3 rhodamine]”, the binding result (fluorescence microscopy, 50 nM aptamer, PC-3 (PSMA-negative) cells as specificity control, variant of xPSM1.A10-3) is recorded as “binds”.

(Values after US20020119473.)
